Measurements taken from PMC5906681, “BRI1 and BAK1 interact with G proteins and regulate sugar-responsive growth and development in Arabidopsis” (Nature Communications, 2018).
Results are given in words; binding and its absence hold for the method and conditions named. Tags and fused reporters may be left off the sequences shown.

Target: T1, GST-fused BRI1 kinase domain (Arabidopsis, UniProt O22476 814-1196)
T1 construct: BRASSINOSTEROID … 1 (BRI1), Arabidopsis, kinase domain, residues 814-1196; also called GST-BRI1-KD; BRI1-KD; source: E. coli (pGEX-4T-1); not shown: GST, N-terminal, kept
T1 sequence (looked up): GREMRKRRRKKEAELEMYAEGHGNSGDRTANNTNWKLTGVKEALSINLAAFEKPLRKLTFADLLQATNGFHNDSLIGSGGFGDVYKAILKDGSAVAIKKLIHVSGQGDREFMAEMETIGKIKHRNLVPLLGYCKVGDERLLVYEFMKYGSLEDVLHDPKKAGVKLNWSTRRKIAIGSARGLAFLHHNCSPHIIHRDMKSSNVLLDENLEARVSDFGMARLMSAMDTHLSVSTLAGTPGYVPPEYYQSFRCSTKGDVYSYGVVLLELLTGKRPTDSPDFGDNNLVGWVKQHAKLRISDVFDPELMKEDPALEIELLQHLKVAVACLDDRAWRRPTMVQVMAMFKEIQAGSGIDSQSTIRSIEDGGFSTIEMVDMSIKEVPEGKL
Experiment: condition: about 30 μg MBP fusion with about 15 μg GST fusion in 900 μL; pull-down; about 15 μg GST fusion with about 30 μg MBP fusion in 900 μL TGH buffer (10% glycerol, 1% Triton X-100, 1.5 mM MgCl2, 150 mM NaCl, 1 mM EGTA, 50 mM HEPES, pH 7.5); 30 μL GST beads, about 1 h; immunoblot with anti-MBP and anti-GST; both purified

B1: MBP-GPA1 (protein, UniProt P18064 1-383)
chain: MGLLCSRSRHHTEDTDENTQAAEIERRIEQEAKAEKHIRKLLLLGAGESGKSTIFKQIKLLFQTGFDEGELKSYVPVIHANVYQTIKLLHDGTKEFAQNETDSAKYMLSSESIAIGEKLSEIGGRLDYPRLTKDIAEGIETLWKDPAIQETCARGNELQVPDCTKYLMENLKRLSDINYIPTKEDVLYARVRTTGVVEIQFSPVGENKKSGEVYRLFDVGGQRNERRKWIHLFEGVTAVIFCAAISEYDQTLFEDEQKNRMMETKELFDWVLKQPCFEKTSFMLFLNKFDIFEKKVLDVPLNVCEWFRDYQPVSSGKQEIEHAYEFVKKKFEELYYQNTAPDRVDRVFKIYRTTALDQKLVKKTFKLVDETLRRRNLLEAGLL
In the case of B1, the binding is reported as “no binding”.
